## Screening data

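A panel of P. falciparum strains inside erythrocytes is exposed to compounds for three days, then a DNA-binding dye reports the amount of parasite DNA.
Each compound was titrated across a series from about 0.000037 to 29 µM.
The number is the fitted AC50, the concentration giving a half-maximal change in signal; a lower value means higher potency, whether the curve shows a decrease or an increase.
Calls follow the curve class and fit quality: every row here is inconclusive, covering signal-raising curves and weak, poorly fitted, partial or highest-dose-only inhibition curves.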

Values are in µM.
All entries here are filed as inconclusive.
Only part of the assay is shown, chiefly results filed as inconclusive.
Potencies fitted to partial, single-point or poorly fitting curves are rough.

| # | Compound | condition | potency (µM) | curve |
|---|---|---|---|---|
| 1 | `CCN(CC)CCOC(=O)C(C)(c1ccccc1)c1ccccc1` | CP286 | 4.467 | inhibitor, partial curve |
| 2 | `CCN(CC)CCOC(=O)C(C)(c1ccccc1)c1ccccc1` | CP265 | 8.912 | inhibitor, single point |
| 3 | `CCN(CC)CCOC(=O)C(C)(c1ccccc1)c1ccccc1` | CP191 | 11.22 | inhibitor, single point |
| 4 | `CCN(CC)CCOC(=O)C(C)(c1ccccc1)c1ccccc1` | PC26 | 6.012 | inhibitor, partial curve |
| 5 | `CCN(CC)CCOC(=O)C(C)(c1ccccc1)c1ccccc1` | CP252 | 7.943 | inhibitor, partial curve |
| 6 | `CCN(CC)CCOC(=O)C(C)(c1ccccc1)c1ccccc1` | N140 | 8.912 | inhibitor, partial curve |
| 7 | `Cc1cccc(C)c1NC(=O)CN1CCN(CCCC(c2ccc(F)cc2)c2ccc(F)cc2)CC1` | GB4 | 5.726 | inhibitor, partial curve, poor fit |
| 8 | `Cc1cccc(C)c1NC(=O)CN1CCN(CCCC(c2ccc(F)cc2)c2ccc(F)cc2)CC1` | DIV17 | 8.087 | inhibitor, single point |
| 9 | `Cc1cccc(C)c1NC(=O)CN1CCN(CCCC(c2ccc(F)cc2)c2ccc(F)cc2)CC1` | Dd2 | 3.162 | inhibitor, single point |
| 10 | `Cc1cccc(C)c1NC(=O)CN1CCN(CCCC(c2ccc(F)cc2)c2ccc(F)cc2)CC1` | PAD | 3.548 | inhibitor, single point |
| 11 | `Cc1cccc(C)c1NC(=O)CN1CCN(CCCC(c2ccc(F)cc2)c2ccc(F)cc2)CC1` | DIV14 | 5.103 | inhibitor, partial curve |
| 12 | `Cc1cccc(C)c1NC(=O)CN1CCN(CCCC(c2ccc(F)cc2)c2ccc(F)cc2)CC1` | CP237 | 3.548 | inhibitor, partial curve |
| 13 | `Cc1cccc(C)c1NC(=O)CN1CCN(CCCC(c2ccc(F)cc2)c2ccc(F)cc2)CC1` | CP269 | 5.726 | inhibitor, single point |
| 14 | `Cc1cccc(C)c1NC(=O)CN1CCN(CCCC(c2ccc(F)cc2)c2ccc(F)cc2)CC1` | P94_40 | 4.467 | inhibitor, single point |
| 15 | `Cc1cccc(C)c1NC(=O)CN1CCN(CCCC(c2ccc(F)cc2)c2ccc(F)cc2)CC1` | CP297 | 5.726 | inhibitor, single point |
| 16 | `Cc1cccc(C)c1NC(=O)CN1CCN(CCCC(c2ccc(F)cc2)c2ccc(F)cc2)CC1` | ECU | 3.981 | inhibitor, single point |
| 17 | `Cc1cccc(C)c1NC(=O)CN1CCN(CCCC(c2ccc(F)cc2)c2ccc(F)cc2)CC1` | DIV30 | 4.548 | inhibitor, single point |
| 18 | `Cc1cccc(C)c1NC(=O)CN1CCN(CCCC(c2ccc(F)cc2)c2ccc(F)cc2)CC1` | HB3 | 3.548 | inhibitor, single point |
| 19 | `Cc1cccc(C)c1NC(=O)CN1CCN(CCCC(c2ccc(F)cc2)c2ccc(F)cc2)CC1` | CP335 | 8.087 | inhibitor, single point |
| 20 | `Cc1cccc(C)c1NC(=O)CN1CCN(CCCC(c2ccc(F)cc2)c2ccc(F)cc2)CC1` | 3D7 | 10 | inhibitor, single point |
| 21 | `Cc1cccc(C)c1NC(=O)CN1CCN(CCCC(c2ccc(F)cc2)c2ccc(F)cc2)CC1` | TAB165 | 3.548 | inhibitor, partial curve, poor fit |
| 22 | `Cc1cccc(C)c1NC(=O)CN1CCN(CCCC(c2ccc(F)cc2)c2ccc(F)cc2)CC1` | ATS95 | 4.467 | inhibitor, single point |
| 23 | `Cc1cccc(C)c1NC(=O)CN1CCN(CCCC(c2ccc(F)cc2)c2ccc(F)cc2)CC1` | TAB109 | 4.467 | inhibitor, single point |
| 24 | `Cc1cccc(C)c1NC(=O)CN1CCN(CCCC(c2ccc(F)cc2)c2ccc(F)cc2)CC1` | CP194 | 4.548 | inhibitor, single point |
| 25 | `Cc1cccc(C)c1NC(=O)CN1CCN(CCCC(c2ccc(F)cc2)c2ccc(F)cc2)CC1` | ATS189 | 3.981 | inhibitor, single point |
| 26 | `Cc1cccc(C)c1NC(=O)CN1CCN(CCCC(c2ccc(F)cc2)c2ccc(F)cc2)CC1` | PC26 | 8.087 | inhibitor, single point |
| 27 | `Cc1cccc(C)c1NC(=O)CN1CCN(CCCC(c2ccc(F)cc2)c2ccc(F)cc2)CC1` | SC27B | 3.981 | inhibitor, single point |
| 28 | `Cc1cccc(C)c1NC(=O)CN1CCN(CCCC(c2ccc(F)cc2)c2ccc(F)cc2)CC1` | CP217 | 3.548 | inhibitor, single point |
| 29 | `Cc1cccc(C)c1NC(=O)CN1CCN(CCCC(c2ccc(F)cc2)c2ccc(F)cc2)CC1` | AA1029 | 7.943 | inhibitor, single point |
| 30 | `Cc1cccc(C)c1NC(=O)CN1CCN(CCCC(c2ccc(F)cc2)c2ccc(F)cc2)CC1` | CP262 | 8.087 | inhibitor, single point |
| 31 | `Cc1cccc(C)c1NC(=O)CN1CCN(CCCC(c2ccc(F)cc2)c2ccc(F)cc2)CC1` | CP203 | 5.726 | inhibitor, single point |
| 32 | `NC(C(=O)O)C(O)c1ccc(O)c(O)c1` (configuration not stated) | ECU | 17.78 | inhibitor, single point |
| 33 | `NC(C(=O)O)C(O)c1ccc(O)c(O)c1` (configuration not stated) | DIV14 | 13.46 | inhibitor, single point |
| 34 | `NC(C(=O)O)C(O)c1ccc(O)c(O)c1` (configuration not stated) | PC26 | 19.01 | inhibitor, single point |
| 35 | `NC(C(=O)O)C(O)c1ccc(O)c(O)c1` (configuration not stated) | CP203 | 19.01 | inhibitor, single point |
| 36 | `NC(C(=O)O)C(O)c1ccc(O)c(O)c1` (configuration not stated) | 7G8 | 17.78 | inhibitor, single point |
| 37 | `NC(C(=O)O)C(O)c1ccc(O)c(O)c1` (configuration not stated) | W2 | 15.1 | inhibitor, partial curve, poor fit |
| 38 | `NC(C(=O)O)C(O)c1ccc(O)c(O)c1` (configuration not stated) | P93_24 | 17.78 | inhibitor, single point |

Some entries from above, unchanged:

| Compound | condition | potency (µM) | curve |
|---|---|---|---|
| `NC(C(=O)O)C(O)c1ccc(O)c(O)c1` (configuration not stated) | CP203 | 19.01 | inhibitor, single point |
| `NC(C(=O)O)C(O)c1ccc(O)c(O)c1` (configuration not stated) | PC26 | 19.01 | inhibitor, single point |
| `CCN(CC)CCOC(=O)C(C)(c1ccccc1)c1ccccc1` | CP191 | 11.22 | inhibitor, single point |

From PubChem BioAssay record AID504749 (NCATS, 2011).